Weaker means in comparison with the reference protein, sequence or condition of that experiment.
Target: HNF-1A DD-DBD (HNF-1A 1-279) (UniProt P20823)
Assay: BLI
Settings: Kd increase between 5 and 10 fold vs P2 WT; BLI: streptavidin sensor with BiotinTEG dsDNA; recombinant protein; residues 1-279; protein details: His6 removed by TEV; label: 5' BiotinTEG on forward strand (BLI only)

The chains behind the UniProt entries cited, without tags or fusion partners. Residues count along the entry.
UniProt P20823, 1-279: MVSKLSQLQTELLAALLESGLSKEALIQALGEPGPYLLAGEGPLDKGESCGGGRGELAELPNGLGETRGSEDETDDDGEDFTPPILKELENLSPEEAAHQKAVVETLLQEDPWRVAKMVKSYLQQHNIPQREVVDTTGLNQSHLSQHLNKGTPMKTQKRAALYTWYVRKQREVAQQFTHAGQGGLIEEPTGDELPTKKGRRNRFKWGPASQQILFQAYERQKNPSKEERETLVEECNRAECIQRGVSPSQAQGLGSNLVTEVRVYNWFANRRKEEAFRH

“ACTGATTACTCTTTAACGTAT (double strand) [P2 -181G>A]”: binds more weakly.
